In the supplement of paper PMC10849652:
The list shows a part of the results.

Sequences of proteins named here, by UniProt entry; tags and fusion partners are left off. A change or cut given only in a name is not applied to a line headed by its entry.
UniProt Q9BQ90: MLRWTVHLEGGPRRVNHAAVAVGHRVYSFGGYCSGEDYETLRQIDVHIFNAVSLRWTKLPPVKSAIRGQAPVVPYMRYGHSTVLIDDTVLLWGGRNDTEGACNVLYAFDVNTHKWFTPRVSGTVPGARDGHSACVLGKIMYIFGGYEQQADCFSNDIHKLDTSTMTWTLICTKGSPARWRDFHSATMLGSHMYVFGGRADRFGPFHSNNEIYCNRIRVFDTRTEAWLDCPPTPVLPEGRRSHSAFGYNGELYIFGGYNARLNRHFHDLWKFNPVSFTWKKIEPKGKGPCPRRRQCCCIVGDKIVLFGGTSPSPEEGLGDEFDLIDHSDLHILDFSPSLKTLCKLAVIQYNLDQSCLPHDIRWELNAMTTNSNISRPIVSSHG
UniProt O00139: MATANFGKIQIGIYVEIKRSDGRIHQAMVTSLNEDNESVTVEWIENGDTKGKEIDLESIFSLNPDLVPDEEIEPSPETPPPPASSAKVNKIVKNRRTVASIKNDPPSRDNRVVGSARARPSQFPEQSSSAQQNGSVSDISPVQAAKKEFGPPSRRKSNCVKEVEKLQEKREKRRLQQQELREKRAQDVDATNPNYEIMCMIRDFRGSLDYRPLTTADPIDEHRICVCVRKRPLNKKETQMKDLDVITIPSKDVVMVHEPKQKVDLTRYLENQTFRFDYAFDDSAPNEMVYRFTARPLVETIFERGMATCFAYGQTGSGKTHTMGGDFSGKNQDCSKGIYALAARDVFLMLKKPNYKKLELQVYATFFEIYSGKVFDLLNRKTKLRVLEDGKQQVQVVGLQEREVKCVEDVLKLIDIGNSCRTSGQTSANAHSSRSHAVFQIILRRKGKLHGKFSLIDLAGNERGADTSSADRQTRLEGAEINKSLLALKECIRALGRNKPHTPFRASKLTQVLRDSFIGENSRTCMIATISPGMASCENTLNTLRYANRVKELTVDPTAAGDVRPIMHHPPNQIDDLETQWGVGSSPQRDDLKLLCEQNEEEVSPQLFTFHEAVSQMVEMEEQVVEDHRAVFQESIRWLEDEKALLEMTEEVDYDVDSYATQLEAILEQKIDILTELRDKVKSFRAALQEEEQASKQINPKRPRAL
UniProt O60268: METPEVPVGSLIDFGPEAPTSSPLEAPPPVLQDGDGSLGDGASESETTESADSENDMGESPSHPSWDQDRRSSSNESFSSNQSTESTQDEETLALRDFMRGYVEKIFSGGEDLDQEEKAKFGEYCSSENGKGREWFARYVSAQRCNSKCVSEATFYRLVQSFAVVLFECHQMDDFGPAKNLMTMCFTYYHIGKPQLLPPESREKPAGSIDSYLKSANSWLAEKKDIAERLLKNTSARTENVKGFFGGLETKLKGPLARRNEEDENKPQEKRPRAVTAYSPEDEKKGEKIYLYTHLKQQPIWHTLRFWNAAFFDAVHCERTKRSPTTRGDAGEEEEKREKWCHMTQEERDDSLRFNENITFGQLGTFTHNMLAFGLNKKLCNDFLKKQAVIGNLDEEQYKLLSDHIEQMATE
UniProt P11279: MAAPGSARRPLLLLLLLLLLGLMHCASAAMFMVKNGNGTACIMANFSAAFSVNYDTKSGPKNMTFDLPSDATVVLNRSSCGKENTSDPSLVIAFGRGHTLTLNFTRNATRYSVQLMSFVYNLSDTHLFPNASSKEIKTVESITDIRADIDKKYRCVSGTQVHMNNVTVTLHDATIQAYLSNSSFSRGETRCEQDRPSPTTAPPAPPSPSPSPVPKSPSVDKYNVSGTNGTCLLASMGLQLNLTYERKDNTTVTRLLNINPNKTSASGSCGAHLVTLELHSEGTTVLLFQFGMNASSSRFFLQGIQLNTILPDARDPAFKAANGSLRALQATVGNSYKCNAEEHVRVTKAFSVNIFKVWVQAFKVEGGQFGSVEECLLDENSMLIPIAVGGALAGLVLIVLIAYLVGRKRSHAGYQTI
UniProt Q9BXK1: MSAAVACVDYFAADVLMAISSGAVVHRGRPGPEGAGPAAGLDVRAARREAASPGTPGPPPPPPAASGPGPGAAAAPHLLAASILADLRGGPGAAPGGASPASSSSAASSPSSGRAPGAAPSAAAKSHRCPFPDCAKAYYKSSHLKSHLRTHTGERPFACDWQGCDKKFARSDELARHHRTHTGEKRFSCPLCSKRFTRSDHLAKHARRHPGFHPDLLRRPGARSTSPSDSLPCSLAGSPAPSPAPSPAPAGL
UniProt Q86UP2: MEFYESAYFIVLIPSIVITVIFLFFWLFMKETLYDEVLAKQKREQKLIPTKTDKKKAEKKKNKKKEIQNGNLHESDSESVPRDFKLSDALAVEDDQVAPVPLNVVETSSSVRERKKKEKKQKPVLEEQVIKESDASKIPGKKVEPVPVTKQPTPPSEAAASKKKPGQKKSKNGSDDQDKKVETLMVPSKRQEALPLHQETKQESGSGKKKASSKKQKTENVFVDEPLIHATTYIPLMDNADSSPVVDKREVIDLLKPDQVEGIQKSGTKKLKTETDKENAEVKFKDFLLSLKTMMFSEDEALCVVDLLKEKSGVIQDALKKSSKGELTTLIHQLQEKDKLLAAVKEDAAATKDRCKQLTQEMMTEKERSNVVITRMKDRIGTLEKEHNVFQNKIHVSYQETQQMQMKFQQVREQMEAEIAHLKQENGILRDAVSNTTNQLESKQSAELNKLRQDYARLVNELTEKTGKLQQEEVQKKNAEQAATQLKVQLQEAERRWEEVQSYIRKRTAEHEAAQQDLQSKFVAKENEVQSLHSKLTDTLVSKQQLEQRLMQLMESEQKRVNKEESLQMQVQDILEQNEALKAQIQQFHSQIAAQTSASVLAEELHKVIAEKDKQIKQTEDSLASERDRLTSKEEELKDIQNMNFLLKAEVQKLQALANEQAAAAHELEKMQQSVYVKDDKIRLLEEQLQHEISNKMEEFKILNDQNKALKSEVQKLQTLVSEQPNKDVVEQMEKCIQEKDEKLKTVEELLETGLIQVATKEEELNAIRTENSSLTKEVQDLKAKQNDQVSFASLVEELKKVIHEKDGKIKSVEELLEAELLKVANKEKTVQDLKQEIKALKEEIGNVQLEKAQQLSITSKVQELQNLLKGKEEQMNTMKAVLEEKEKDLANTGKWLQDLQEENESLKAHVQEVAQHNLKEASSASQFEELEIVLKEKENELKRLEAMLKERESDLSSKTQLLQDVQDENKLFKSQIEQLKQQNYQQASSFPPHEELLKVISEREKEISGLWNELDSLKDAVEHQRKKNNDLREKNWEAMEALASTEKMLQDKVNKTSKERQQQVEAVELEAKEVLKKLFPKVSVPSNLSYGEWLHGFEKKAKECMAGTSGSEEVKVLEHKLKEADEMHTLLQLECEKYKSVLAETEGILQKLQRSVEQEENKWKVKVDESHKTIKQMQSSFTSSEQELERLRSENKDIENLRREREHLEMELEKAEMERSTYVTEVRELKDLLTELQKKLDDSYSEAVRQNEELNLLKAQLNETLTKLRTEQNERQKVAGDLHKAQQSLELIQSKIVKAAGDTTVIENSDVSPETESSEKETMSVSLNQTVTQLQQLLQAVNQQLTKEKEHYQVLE
UniProt Q9NSK0: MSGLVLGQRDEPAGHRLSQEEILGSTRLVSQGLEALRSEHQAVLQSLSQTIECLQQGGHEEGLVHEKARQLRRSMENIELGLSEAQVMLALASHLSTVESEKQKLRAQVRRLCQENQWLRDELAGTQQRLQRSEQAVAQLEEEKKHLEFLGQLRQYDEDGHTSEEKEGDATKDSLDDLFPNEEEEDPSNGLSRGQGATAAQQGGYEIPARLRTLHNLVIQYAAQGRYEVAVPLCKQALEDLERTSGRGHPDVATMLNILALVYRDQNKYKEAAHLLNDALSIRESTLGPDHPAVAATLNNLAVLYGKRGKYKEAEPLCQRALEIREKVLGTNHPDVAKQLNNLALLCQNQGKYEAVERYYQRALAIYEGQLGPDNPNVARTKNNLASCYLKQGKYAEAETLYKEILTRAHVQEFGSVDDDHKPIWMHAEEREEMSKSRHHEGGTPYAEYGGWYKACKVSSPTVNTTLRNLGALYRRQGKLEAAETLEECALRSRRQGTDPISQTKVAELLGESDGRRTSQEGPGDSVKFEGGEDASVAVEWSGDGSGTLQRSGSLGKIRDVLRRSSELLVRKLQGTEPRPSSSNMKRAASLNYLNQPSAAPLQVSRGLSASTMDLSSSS
UniProt Q14145, whole entry, looked up: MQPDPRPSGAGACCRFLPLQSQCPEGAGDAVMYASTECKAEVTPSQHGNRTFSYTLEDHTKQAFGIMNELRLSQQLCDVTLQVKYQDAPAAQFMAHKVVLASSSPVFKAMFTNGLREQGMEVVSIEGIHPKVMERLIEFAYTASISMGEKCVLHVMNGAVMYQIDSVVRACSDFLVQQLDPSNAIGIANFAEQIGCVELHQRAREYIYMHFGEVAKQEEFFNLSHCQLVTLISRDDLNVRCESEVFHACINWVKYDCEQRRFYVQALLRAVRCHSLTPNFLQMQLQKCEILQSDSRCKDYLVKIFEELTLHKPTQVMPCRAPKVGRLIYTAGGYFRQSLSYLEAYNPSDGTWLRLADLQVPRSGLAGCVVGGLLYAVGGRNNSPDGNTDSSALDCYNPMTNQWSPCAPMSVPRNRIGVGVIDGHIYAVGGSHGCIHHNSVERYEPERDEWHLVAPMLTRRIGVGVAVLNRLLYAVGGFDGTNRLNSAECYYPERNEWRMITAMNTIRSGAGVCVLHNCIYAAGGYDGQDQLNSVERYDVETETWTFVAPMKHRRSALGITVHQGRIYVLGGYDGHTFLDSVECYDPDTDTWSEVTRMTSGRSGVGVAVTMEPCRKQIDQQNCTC
UniProt Q9UN81: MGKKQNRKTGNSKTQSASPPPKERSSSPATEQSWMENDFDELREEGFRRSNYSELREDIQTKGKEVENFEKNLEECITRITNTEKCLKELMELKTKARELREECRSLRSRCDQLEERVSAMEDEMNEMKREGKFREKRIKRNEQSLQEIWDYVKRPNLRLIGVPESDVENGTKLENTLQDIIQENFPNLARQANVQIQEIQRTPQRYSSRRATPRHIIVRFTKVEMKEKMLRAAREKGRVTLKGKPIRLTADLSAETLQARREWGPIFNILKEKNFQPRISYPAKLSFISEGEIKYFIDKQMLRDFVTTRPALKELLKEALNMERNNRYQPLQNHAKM
UniProt Q8IXQ5, whole entry, looked up: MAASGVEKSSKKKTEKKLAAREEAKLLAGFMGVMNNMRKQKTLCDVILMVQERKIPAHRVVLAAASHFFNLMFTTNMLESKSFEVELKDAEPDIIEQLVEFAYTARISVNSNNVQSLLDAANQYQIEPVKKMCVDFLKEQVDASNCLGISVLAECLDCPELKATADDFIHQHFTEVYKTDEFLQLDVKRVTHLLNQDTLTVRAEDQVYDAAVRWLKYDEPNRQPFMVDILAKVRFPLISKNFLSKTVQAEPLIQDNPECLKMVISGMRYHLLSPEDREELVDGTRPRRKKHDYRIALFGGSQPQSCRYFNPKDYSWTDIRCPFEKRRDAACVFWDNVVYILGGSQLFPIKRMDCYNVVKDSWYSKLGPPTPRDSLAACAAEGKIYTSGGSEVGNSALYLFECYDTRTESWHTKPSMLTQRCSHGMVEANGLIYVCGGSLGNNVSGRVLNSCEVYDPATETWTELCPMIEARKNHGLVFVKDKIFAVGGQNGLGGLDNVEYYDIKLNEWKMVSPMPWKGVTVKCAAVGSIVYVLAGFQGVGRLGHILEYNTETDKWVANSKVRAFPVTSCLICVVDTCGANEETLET
UniProt Q9Y2M5: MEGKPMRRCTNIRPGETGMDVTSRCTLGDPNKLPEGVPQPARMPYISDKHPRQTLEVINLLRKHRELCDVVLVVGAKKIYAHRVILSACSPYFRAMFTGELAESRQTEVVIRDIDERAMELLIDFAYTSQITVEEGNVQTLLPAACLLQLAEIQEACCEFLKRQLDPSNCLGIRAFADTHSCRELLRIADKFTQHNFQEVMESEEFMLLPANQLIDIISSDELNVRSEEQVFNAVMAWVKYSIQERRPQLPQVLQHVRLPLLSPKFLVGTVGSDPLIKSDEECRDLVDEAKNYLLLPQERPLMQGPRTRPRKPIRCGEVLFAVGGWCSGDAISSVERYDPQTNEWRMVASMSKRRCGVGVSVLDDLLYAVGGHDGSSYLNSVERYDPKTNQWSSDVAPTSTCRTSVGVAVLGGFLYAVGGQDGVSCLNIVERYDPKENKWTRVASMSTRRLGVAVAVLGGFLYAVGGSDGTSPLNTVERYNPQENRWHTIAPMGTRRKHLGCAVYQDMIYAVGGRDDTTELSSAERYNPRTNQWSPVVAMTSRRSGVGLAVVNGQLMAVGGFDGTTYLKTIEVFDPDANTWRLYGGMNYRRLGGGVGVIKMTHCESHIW

Legend:
Assay in all cases: log2 fold change, soluble protein after heating vs DMSO (PISA); higher = thermal stabilisation; K562 lysate, 10 uM; active = over 0.2 and 3.5 SD of the protein, either way, in both replicates (recomputed)
vemurafenib = compound: CCCS(=O)(=O)Nc1ccc(F)c(C(=O)c2c[nH]c3ncc(-c4ccc(Cl)cc4)cc23)c1F [vemurafenib]
In short: (§1)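 Soluble protein was defined as the supernatant remaining after 21,000xg for 90 min, following pooling of heated aliquots and adjustment to 0.5% NP-40 at 4°C. Before that, crude K562 extract at 1 mg/mL protein in PBS pH 7.4 with 1 mM MgCl2 was treated with 10 μM compound for 30 min and heated for 3 min across 48°C-58°C. Quantification used TMTpro 16plex LC-MS/MS with channel sums equalised, and values are log-two fold changes in thermal stability relative to solvent controls from duplicates.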

[1] = compound: CCCS(=O)(=O)Nc1ccc(F)c(C(=O)c2c[nH]c3ncc(Cl)cc23)c1F
In short: as §1

barasertib = compound: CCN(CCCOc1ccc2c(Nc3cc(CC(=O)Nc4cccc(F)c4)[nH]n3)ncnc2c1)CCOP(=O)(O)O [barasertib]
In short: as §1

[2] = compound: CC[C@@H]1C(=O)N(C)c2cnc(Nc3ccc(C(=O)NC4CCN(C)CC4)cc3OC)nc2N1C1CCCC1
In short: as §1

volasertib = compound: CC[C@@H]1C(=O)N(C)c2cnc(Nc3ccc(C(=O)N[C@H]4CC[C@H](N5CCN(CC6CC6)CC5)CC4)cc3OC)nc2N1C(C)C [volasertib]
In short: as §1

[3] = compound: CCn1c(C(=O)N(C2CC2)C2CC2)cc2c3c(ncn3C)c(Nc3cc(C)n(C)n3)nc21
In short: as §1

[4] = compound: CCn1cc(-c2ccnc3[nH]c(-c4cccc(CN(C)C)c4)cc23)c(-c2ccc(NC(=O)N(C)C)cc2)n1
In short: as §1

[5] = compound: CN1CCC(CNc2ccc3ncc(-c4cccc(OC(F)(F)F)c4)n3n2)CC1
In short: as §1

saracatinib = compound: CN1CCN(CCOc2cc(OC3CCOCC3)c3c(Nc4c(Cl)ccc5c4OCO5)ncnc3c2)CC1 [saracatinib]
In short: as §1

sotrastaurin = compound: CN1CCN(c2nc(C3=C(c4c[nH]c5ccccc45)C(=O)NC3=O)c3ccccc3n2)CC1 [sotrastaurin]
In short: as §1

Measured: log2 fold change

KLHDC3 (UniProt Q9BQ90)
inactive: vemurafenib -0.085 | [1] 0.046 | barasertib 0.076 | [2] -0.03 | volasertib 0.045 | [3] 0.065 | [4] 0.042 | [5] 0.043 | saracatinib 0.026 | sotrastaurin -0.01

KIF2A isoform 4 (UniProt O00139)
inactive: vemurafenib -0.006 | [1] 0 | barasertib -0.014 | [2] -0.117 | volasertib -0.032 | [3] 0.042 | [4] -0.013 | [5] 0.009 | saracatinib 0.021 | sotrastaurin 0.023

LARP1B, A0A3B3ISF0
inactive: vemurafenib 0.067 | [1] -0.068 | barasertib -0.04 | [2] 0.026 | volasertib -0.036 | [3] 0.029 | [4] -0.028 | [5] -0.034 | saracatinib -0.014 | sotrastaurin 0.022

KIAA0513 (UniProt O60268)
inactive: vemurafenib 0.01 | [1] 0.032 | barasertib -0.005 | [2] 0.012 | volasertib -0.002 | [3] -0.01 | [4] -0.067 | [5] 0.074 | saracatinib 0.018 | sotrastaurin -0.011

LAMP1 (UniProt P11279)
inactive: vemurafenib -0.009 | [1] 0.02 | barasertib 0.001 | [2] 0.059 | volasertib 0.056 | [3] -0.097 | [5] 0.24 | saracatinib 0.018 | sotrastaurin 0.022
active: [4] -0.508

KLF16 (UniProt Q9BXK1)
inactive: vemurafenib -0.201 | [1] 0.025 | barasertib -0.206 | [2] 0.239 | volasertib 0.009 | [3] 0.048 | [4] 0.037 | [5] 0.104 | saracatinib 0.045 | sotrastaurin -0.089

KTN1 (UniProt Q86UP2)
inactive: vemurafenib -0.012 | [1] 0.012 | barasertib 0.015 | [2] 0.023 | volasertib 0 | [3] -0.02 | [4] 0 | [5] -0.016 | saracatinib 0.009 | sotrastaurin -0.007

KLC4 isoform 3 (UniProt Q9NSK0)
inactive: vemurafenib -0.038 | [1] 0.02 | barasertib -0.008 | [2] 0.038 | volasertib -0.029 | [3] 0.052 | [4] 0.011 | [5] -0.018 | saracatinib -0.012 | sotrastaurin 0.003

KEAP1 (UniProt Q14145)
inactive: vemurafenib 0.014 | [1] 0 | barasertib 0.01 | [2] -0.008 | volasertib -0.001 | [3] -0.016 | [4] -0.017 | [5] 0.044 | saracatinib -0.018 | sotrastaurin 0.033

L1RE1 (UniProt Q9UN81)
inactive: vemurafenib 0.031 | [1] -0.08 | barasertib 0.011 | [2] 0.06 | volasertib 0.033 | [3] -0.147 | [4] -0.012 | [5] -0.006 | saracatinib -0.021 | sotrastaurin -0.035

KLHL7 (UniProt Q8IXQ5)
inactive: vemurafenib -0.248 | [1] 0.084 | [2] 0.072 | volasertib 0.029 | [3] 0.02 | [4] -0.09 | [5] 0.022 | saracatinib -0.016 | sotrastaurin 0

KLHL7 isoform 3 (UniProt Q8IXQ5)
inactive: vemurafenib -0.079 | [1] 0.091 | [2] -0.03 | volasertib -0.073 | [3] -0.056 | [4] 0.88 | [5] 0.172 | sotrastaurin -0.015

2 neighbouring records from above:
L1RE1 (UniProt Q9UN81)
inactive: vemurafenib 0.031 | [1] -0.08 | barasertib 0.011 | [2] 0.06 | volasertib 0.033 | [3] -0.147 | [4] -0.012 | [5] -0.006 | saracatinib -0.021 | sotrastaurin -0.035

KLHL7 (UniProt Q8IXQ5)
inactive: vemurafenib -0.248 | [1] 0.084 | [2] 0.072 | volasertib 0.029 | [3] 0.02 | [4] -0.09 | [5] 0.022 | saracatinib -0.016 | sotrastaurin 0

Next part:

KIF3C (UniProt O14782)
inactive: vemurafenib 0.565 | [1] -0.213 | [2] -0.296 | volasertib 0.186 | [3] 0.018 | [4] -0.138 | [5] -0.037 | saracatinib 0.02 | sotrastaurin -0.022

KLHL20 (UniProt Q9Y2M5)
inactive: [1] 0.044 | barasertib 0.051 | [2] 0.213 | volasertib -0.012 | [3] 0.005 | [4] -0.059 | [5] 0.047 | saracatinib -0.002 | sotrastaurin -0.017
